Experimental data published in PubChem BioAssay AID206 (DTP/NCI, 2004).
The list is a part of this screen's results and no random one: it gathers tests that were run many times, whatever their T/C, doses with no T/C, and many T/C values between a quarter and a half above the control. Further doses and runs are listed elsewhere. T/C gives the treated animals as a percentage of the vehicle group. Schedules are NCI's codes, read here as Q, the interval in days (D) or hours (H), X, the number of doses. Some T/C values carry the count of animals alive at the toxicity check (mostly the fifth day); without a count, all were alive then. Some doses have a count of surviving animals in place of a T/C: the source files T/C as zero there, which appears to mark a toxic dose or a test without result, not a measured value. Survivors were counted at the toxicity check, usually on the fifth day, unless a day is given; later deaths do not show. Some entries hold several experiments; the results are listed from low to high.

Tested on: nude mice, HT29 intrarenal xenograft, tumor weight T/C
Assay: NCI In Vivo Anticancer Drug Screen. Data for tumor model HT29;CX-1 Human Adenocarcinoma (MER+) (intrarenal inoculation) in NU/NU Swiss (nude) mice
Conditions: T/C endpoint: mean tumor weight change, higher T/C = larger tumour
Description: The antitumor activity of compounds was measured in mice bearing transplantable tumors. Survival or tumor size were measured and the results are expressed as the measurement made in the treated group (T) divided by the measurement made in the vehicle treated control group (C). The tumor model used in this assay is HT29;CX-1 Human Adenocarcinoma (MER+) (intrarenal inoculation) in NU/NU Swiss (nude) mice

[1] = dose: 1600.0 mg/kg/injection, schedule: Q04DX004 (sc), vehicle: Klucel (hydroxypropylcellulose) (HPC)
[2] = dose: 1800.0 mg/kg/injection, schedule: Q04DX004 (sc), vehicle: suspension in saline

## COc1cccc2c1C(=O)c1c(O)c3c(c(O)c1C2=O)C[C@@](O)(C(C)=O)C[C@@H]3OC1CC(N)C(O)C(C)O1 (stereo not given in full)
dose: 0.5 mg/kg/injection, schedule: Q01DX010 (sc), vehicle: saline, evaluated on day 11
  T/C: 134 % of control
dose: 1.0 mg/kg/injection, schedule: Q01DX010 (sc), vehicle: saline, evaluated on day 11
  T/C: 137 % of control
dose: 2.0 mg/kg/injection, schedule: Q01DX010 (sc), vehicle: saline, evaluated on day 11
  T/C: 131 % of control
dose: 8.0 mg/kg/injection, schedule: Q01DX010 (sc), vehicle: saline
  survivor count: 0 of 3 on day 11 and 0 of 6 on day 11
dose: 16.0 mg/kg/injection, schedule: Q01DX010 (sc), vehicle: saline
  survivor count: 0 of 3 on day 11

## Nc1nc2ccc(NCc3ccc(C(=O)NC(CCC(=O)O)C(=O)O)cc3)cc2c(=O)[nH]1 (stereo not given)
dose: 800.0 mg/kg/injection, schedule: Q04DX004 (sc), vehicle: saline with Tween-80
  survivor count: 0 of 6 on day 15

## Cc1c(CNc2ccc(C(=O)NC(CC(=O)O)C(=O)O)cc2)ccc2nc(N)nc(N)c12 (stereo not given)
dose: 25.0 mg/kg/injection, schedule: Q04DX004 (sc), vehicle: saline with Tween-80
  survivor count: 2 of 6 on day 15
dose: 50.0 mg/kg/injection, schedule: Q04DX004 (sc), vehicle: saline with Tween-80
  survivor count: 0 of 6 on day 15
dose: 100.0 mg/kg/injection, schedule: Q04DX004 (sc), vehicle: saline with Tween-80
  survivor count: 0 of 6 on day 15

## CN(C(=S)S(=O)(=O)C12CC3CC(CC(C3)C1)C2)c1ccccc1
dose: 200.0 mg/kg/injection, schedule: Q04DX004 (sc), vehicle: Klucel (hydroxypropylcellulose) (HPC), evaluated on day 15
  T/C: 134 % of control
[1]
  survivor count: 3 of 6 on day 15

## COc1ccc(/C=C/C(=O)c2cc(C(=O)O)c(OC)cc2OC)cc1OC
[2]
  survivor count: 2 of 5 on day 15

## CC1(C)CC(=O)C(CSC(=O)c2ccccc2)C(=O)C1
dose: 50.0 mg/kg/injection, schedule: Q01DX010 (sc), vehicle: Klucel (hydroxypropylcellulose) (HPC), evaluated on day 20
  T/C: 137 % of control
dose: 200.0 mg/kg/injection, schedule: Q01DX010 (sc), vehicle: Klucel (hydroxypropylcellulose) (HPC), evaluated on day 20
  T/C: 147 % of control

## CSc1nc(=O)[nH]nc1SCc1ccccc1
[1]
  survivor count: 3 of 5 on day 15

## C=C(C(=O)O)C(N)C(=O)O (stereo not given)
[2]
  survivor count: 2 of 6 on day 15

## CN=C(N)N/N=C(\C)c1ccc2oc3ccc(/C(C)=N/NC(N)=NC)cc3c2c1
dose: 600.0 mg/kg/injection, schedule: Q04DX004 (sc), vehicle: saline with Tween-80
  survivor count: 0 of 6 on day 15

## C1CN1c1nc(N2CC2)nc(N2CC2)n1
dose: 0.13 mg/kg/injection, schedule: Q01DX010 (sc), vehicle: saline, evaluated on day 20
  T/C: 145 % of control
dose: 0.5 mg/kg/injection, schedule: Q01DX010 (sc), vehicle: saline
  survivor count: 0 of 3 on day 20
dose: 1.0 mg/kg/injection, schedule: Q01DX010 (sc), vehicle: saline
  survivor count: 0 of 3 on day 20

## COc1cccc2c1C(=O)c1c(O)c3c(c(O)c1C2=O)C[C@@](O)(C(=O)COC(=O)c1cccnc1)C[C@@H]3OC1CC(N)C(O)C(C)O1 (stereo not given in full)
dose: 24.0 mg/kg/injection, schedule: Q04DX004 (sc), vehicle: saline
  survivor count: 0 of 6 on day 15
dose: 48.0 mg/kg/injection, schedule: Q04DX004 (sc), vehicle: saline
  survivor count: 0 of 6 on day 15

## COc1ccc(C[C@H](N)C(=O)NC2C(CO)OC(n3cnc4c(N(C)C)ncnc43)C2O)cc1 (stereo not given in full)
dose: 800.0 mg/kg/injection, schedule: Q04DX004 (sc), vehicle: saline
  survivor count: 0 of 6 on day 15

## O=C1C(NCC(O)CO)=C(N2CC2)C(=O)C(NCC(O)CO)=C1N1CC1 (stereo not given)
dose: 32.0 mg/kg/injection, schedule: Q04DX004 (sc), vehicle: saline
  survivor count: 0 of 6 on day 15

## CCc1ccccc1N1CCN(C(=O)c2cc(OC)c(OC)c(OC)c2)CC1
dose: 2400.0 mg/kg/injection, schedule: Q04DX004 (sc), vehicle: Klucel (hydroxypropylcellulose) (HPC)
  survivor count: 3 of 6 on day 15

## CCOC(=O)C(C)(C)Oc1ccc(Cl)cc1
dose: 2400.0 mg/kg/injection, schedule: Q04DX004 (sc), vehicle: saline with Tween-80
  survivor count: 0 of 6 on day 15

## c1ccc([C@H]2CN3CCSC3=N2)cc1
dose: 60.0 mg/kg/injection, schedule: Q04DX004 (sc), vehicle: saline, evaluated on day 15
  T/C: 134 % of control [5 of 6 alive on day 15]
dose: 120.0 mg/kg/injection, schedule: Q04DX004 (sc), vehicle: saline
  survivor count: 0 of 6 on day 15

## CS(=O)(=O)OCCN(CCOS(C)(=O)=O)c1ccc(C=Nc2ccc(-c3csc(COc4ccccc4)n3)cc2)cc1
dose: 200.0 mg/kg/injection, schedule: Q01DX010 (sc), vehicle: Klucel (hydroxypropylcellulose) (HPC)
  survivor count: 1 of 2 on day 11
dose: 400.0 mg/kg/injection, schedule: Q01DX010 (sc), vehicle: Klucel (hydroxypropylcellulose) (HPC)
  survivor count: 0 of 3 on day 11

## CC(=O)CC(=O)CCC(=O)O
dose: 300.0 mg/kg/injection, schedule: Q04DX004 (sc), vehicle: saline, evaluated on day 15
  T/C: 128 % of control

## CC(C)[C@](O)(C(=O)OCC1=CCN2CC[C@@H](O)[C@@H]12)[C@H](C)O
dose: 300.0 mg/kg/injection, schedule: Q04DX004 (sc), vehicle: water, evaluated on day 15
  T/C: 143 % of control
dose: 600.0 mg/kg/injection, schedule: Q04DX004 (sc), vehicle: water, evaluated on day 15
  T/C: 149 % of control [5 of 6 alive on day 15]
dose: 1200.0 mg/kg/injection, schedule: Q04DX004 (sc), vehicle: water, evaluated on day 15
  T/C: 137 % of control [4 of 6 alive on day 15]
dose: 2400.0 mg/kg/injection, schedule: Q04DX004 (sc), vehicle: water
  survivor count: 1 of 6 on day 15

## OC(CBr)C(O)C(O)C(O)CBr (stereo not given)
dose: 120.0 mg/kg/injection, schedule: Q01DX010 (sc), vehicle: Klucel (hydroxypropylcellulose) (HPC)
  survivor count: 0 of 3 on day 11
dose: 240.0 mg/kg/injection, schedule: Q01DX010 (sc), vehicle: Klucel (hydroxypropylcellulose) (HPC)
  survivor count: 0 of 3 on day 11
dose: 480.0 mg/kg/injection, schedule: Q01DX010 (sc), vehicle: Klucel (hydroxypropylcellulose) (HPC)
  survivor count: 0 of 3 on day 11
dose: 800.0 mg/kg/injection, schedule: Q01DX010 (sc), vehicle: Klucel (hydroxypropylcellulose) (HPC)
  survivor count: 0 of 3 on day 11
dose: 1600.0 mg/kg/injection, schedule: Q01DX010 (sc), vehicle: Klucel (hydroxypropylcellulose) (HPC)
  survivor count: 0 of 2 on day 11

## COc1cccc2c1C(=O)c1c(O)c3c(c(O)c1C2=O)C[C@@](O)(/C(C)=N\NC(=O)CO)C[C@@H]3OC1CC(N)C(O)C(C)O1 (stereo not given in full)
dose: 125.0 mg/kg/injection, schedule: Q04DX004 (sc), vehicle: saline
  survivor count: 0 of 3 on day 15

## CNC(=O)ON(C(C)=O)C(=O)NC
dose: 150.0 mg/kg/injection, schedule: Q04DX004 (sc), vehicle: saline
  survivor count: 3 of 6 on day 15
dose: 200.0 mg/kg/injection, schedule: Q01DX010 (sc), vehicle: saline
  survivor count: 1 of 3 on day 11
dose: 200.0 mg/kg/injection, schedule: Q04DX004 (sc), vehicle: saline
  survivor count: 0 of 6 on day 15 and 2 of 6 on day 15
dose: 250.0 mg/kg/injection, schedule: Q04DX004 (sc), vehicle: saline
  survivor count: 0 of 6 on day 15
dose: 400.0 mg/kg/injection, schedule: Q04DX004 (sc), vehicle: saline
  survivor count: 0 of 6 on day 15

## CN(C)N=Nc1cccc(C(N)=O)c1
dose: 200.0 mg/kg/injection, schedule: Q04DX004 (sc), vehicle: Klucel (hydroxypropylcellulose) (HPC)
  survivor count: 0 of 6 on day 15

## NC(=O)CC(N)C(=O)O (stereo not given)
dose: 1600.0 mg/kg/injection, schedule: Q04DX004 (sc), vehicle: saline, evaluated on day 15
  T/C: 138 % of control

## O=c1nc(-c2ccco2)sc(=O)[nH]1
dose: 150.0 mg/kg/injection, schedule: Q04DX004 (sc), vehicle: Klucel (hydroxypropylcellulose) (HPC), evaluated on day 15
  T/C: 125 % of control [5 of 6 alive on day 15]
dose: 1200.0 mg/kg/injection, schedule: Q04DX004 (sc), vehicle: Klucel (hydroxypropylcellulose) (HPC)
  survivor count: 2 of 6 on day 15
